Reference: patent publication US20250326855A1 (GO THERAPEUTICS, published 2025)

Target: MUC1
Assay: ELISA, antibody fixed at 1 ug/ml, coated antigen titrated, absorbance 450 nm

B1: 4C8 monoclonal antibody (antibody, V domains shown)
VH: QVQLQQPGSELVRPGASVKLSCKASGYTFTSYWMHWVKQRPGQGLEWIGNIYPRSGTTNYDGYFKSKATLTVDTSSSTAYMQLSSLTSEDSAVYFCTRSGYDYPFVYWGQGTLVTVSA
VL: QAVVTQESALTTSPGETVTLTCRTSTGAVSIRNYANWVQEKPDHLFTGLIGGTNNRAPGVPARFSGSLIGDKAALTITGAQPEDEAIYFCALLYSNYWVFGGGTKLTVL
notes: Murine hybridoma antibody; also called 4C8 mAb; mAb 4C8
binding: no binding (tested: 1000 ug/ml)

These are yes or no findings as the source states them, for the method shown.
